Measurements as given in patent publication EP3636320A1.
These are yes or no findings as the source states them, for the method shown. Some entries that bind do so weakly or less than the wild type.

Chains of the proteins cited; added tags and fusions are not shown. Lines headed by an entry give the natural chain unless they say otherwise; changes in a name come on top.
UniProt Q07011: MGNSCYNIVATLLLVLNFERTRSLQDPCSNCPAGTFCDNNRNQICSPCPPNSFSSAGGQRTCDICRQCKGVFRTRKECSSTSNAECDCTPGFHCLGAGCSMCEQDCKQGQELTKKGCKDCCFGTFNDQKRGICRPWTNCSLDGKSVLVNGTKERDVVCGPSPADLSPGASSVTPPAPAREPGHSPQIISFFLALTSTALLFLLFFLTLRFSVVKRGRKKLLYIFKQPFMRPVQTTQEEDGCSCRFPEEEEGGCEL
UniProt P41273: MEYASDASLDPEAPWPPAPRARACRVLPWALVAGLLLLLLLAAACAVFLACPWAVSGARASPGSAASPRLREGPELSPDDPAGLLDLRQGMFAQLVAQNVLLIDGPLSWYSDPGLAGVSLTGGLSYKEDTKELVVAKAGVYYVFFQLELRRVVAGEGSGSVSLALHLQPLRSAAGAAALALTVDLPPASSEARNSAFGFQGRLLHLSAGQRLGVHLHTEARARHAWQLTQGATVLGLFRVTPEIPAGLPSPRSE

Biological target: human CD137 ECD (Peprotech, cat. 310-15-1MG) (human) (UniProt Q07011)
Assay: flow cytometry; CD137L ECD-Fc captured on protein G beads, R-PE labelled CD137 ECD

binding: binds
Substance: CD137L ECD fused to the Fc part of a human IgG1 (from UniProt P41273 50-254) (Fc fusion)
